These are yes or no findings as the source states them, for the method shown. Some results given as binding are weak or reduced against the parent protein; the word gives no strength.
Assays:
[1] = target: T1, human NOV protein (human) (UniProt P48745); test: Solid-phase radioligand binding: NOV on plastic, iodized VEGF165 in solution, cpm per well
T1 sequence: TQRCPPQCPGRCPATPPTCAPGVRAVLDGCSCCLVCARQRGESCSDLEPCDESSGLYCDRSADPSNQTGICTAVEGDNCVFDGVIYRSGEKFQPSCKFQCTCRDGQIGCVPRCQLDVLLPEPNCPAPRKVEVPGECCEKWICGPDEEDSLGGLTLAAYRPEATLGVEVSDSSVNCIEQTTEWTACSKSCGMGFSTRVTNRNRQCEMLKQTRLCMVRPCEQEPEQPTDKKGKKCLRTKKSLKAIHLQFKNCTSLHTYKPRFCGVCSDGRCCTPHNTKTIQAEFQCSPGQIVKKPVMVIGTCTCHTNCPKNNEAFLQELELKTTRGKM

Amino acid sequences for entries named in this document (tags omitted). A change or cut given only in a name is not applied to a line headed by its entry. Chains listed by the source or under a name are the forms on record and can include a tag or linker.
VEGF165 (P15692, form named): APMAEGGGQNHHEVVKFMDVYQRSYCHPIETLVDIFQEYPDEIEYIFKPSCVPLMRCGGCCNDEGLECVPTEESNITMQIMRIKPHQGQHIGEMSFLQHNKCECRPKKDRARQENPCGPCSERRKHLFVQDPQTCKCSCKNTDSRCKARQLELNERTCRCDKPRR

[2] = target: T1, human NOV protein (human); test: Solid-phase radioligand binding: NOV (4 µg/ml) on a 96-well plate, 1 ng/well iodized VEGF165, with or without 2 µg/ml unlabelled VEGF165 or NOV
[3] = target: T1, human NOV protein (human); test: Solid-phase radioligand binding: NOV on plastic, iodized VEGF189 in solution, cpm per well

Row | binding [1] | binding [2] | binding [3] | Substance
1 | binds | binds | – | VEGF165 (from UniProt P15692 27-191) (ligand)
2 | – | – | binds | VEGF189 (from UniProt P15692 27-215) (ligand)

From patent US20070059314A1
